In the DeepSol protein solubility set:

Experiment: soluble on expression in E. coli; label from the status in PepcDB or PDB records

Sequence	soluble on expression in E. coli
MSLSRPRSQYNTKLFNGDLETFVKDSGQVIPLIVESCIRFINLYGLQHQGIFRVSGSQVEVNDIKNSFERGENPLADDQSNHDINSVAGVLKLYFRGLENPLFPKERFNDLISCIRIDNLYERALHIRKLLLTLPRSVLIVMRYLFAFLNHLSQYSDENMMDPYNLAICFGPTLMPVPEIQDQVSCQAHVNEIIKTIIIHHETIFPDAKELDGPVYEKCMAGDDYCDSPYSEHGTLEEVDQDAGTEPHTSEDECEPIEAIAKFDYVGRSARELSFKKGASLLLYHRASEDWWEGRHNGIDGLVPHQYIVVQDMDDTFSDEGHHHHHH	soluble
MVKETGYYDVLGVKPDASDNELKKAYRKMALKFHPDKNPDGAEQFKQISQAYEVLSDEKKRQIYDQGGEEALQGGGGGGEGFHNPFDVFDMFFGGGGRGGRGERRVKPTVHNLRVTLDTLYKGVTKKLKISRTATCKGCKGLGGNEGSAKECSDCRGRGIKVRVIRMGPMVQQMQSHCDSCNGEGSTFLEKDRCKKCNGKKQVKEDEIIEVGITPGMKDGEKFVFEGKGDEVIGIEKPGDFVVVLDEVEHEKFVRKGDNLIIQHNIDLSEALCGFVRTISTLDGRTIFYRVLPGEVIAHADVKVIHNEGMPMRRASSDKGDLLVQFDVKFPDKINPDAAKKLADLLPGKREEIIDEDAEVVELTELDPQASRRNFAERDDFEGHGGFGGHGHGPQGVQCQQS	soluble
